For the assay, the target named is T1, DERL1 (bovine (endogenous in corpus luteum)) (UniProt Q71SS4).
T1 sequence: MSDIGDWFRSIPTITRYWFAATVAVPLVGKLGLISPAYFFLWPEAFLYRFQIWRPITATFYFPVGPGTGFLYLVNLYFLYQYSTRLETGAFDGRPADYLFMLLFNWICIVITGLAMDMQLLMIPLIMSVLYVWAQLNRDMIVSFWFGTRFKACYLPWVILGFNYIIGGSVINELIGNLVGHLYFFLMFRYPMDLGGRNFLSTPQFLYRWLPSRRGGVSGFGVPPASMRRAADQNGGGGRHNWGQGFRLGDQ
The experiment in a line: co-IP; bovine luteal tissue lysate (100 ug; days 5, 11, 18 of the estrous cycle), precleared, immunoprecipitated with anti-DERL1 antibody and protein A Sepharose CL-4B at 4°C, washed 3 times in lysis buffer with 1% Nonidet-P40; precipitates and supernatants blotted for class I MHC, VIMP and p97.

Protein sequences, listed by entry. Tags and fused reporters are not part of them.
UniProt Q3ZBT1: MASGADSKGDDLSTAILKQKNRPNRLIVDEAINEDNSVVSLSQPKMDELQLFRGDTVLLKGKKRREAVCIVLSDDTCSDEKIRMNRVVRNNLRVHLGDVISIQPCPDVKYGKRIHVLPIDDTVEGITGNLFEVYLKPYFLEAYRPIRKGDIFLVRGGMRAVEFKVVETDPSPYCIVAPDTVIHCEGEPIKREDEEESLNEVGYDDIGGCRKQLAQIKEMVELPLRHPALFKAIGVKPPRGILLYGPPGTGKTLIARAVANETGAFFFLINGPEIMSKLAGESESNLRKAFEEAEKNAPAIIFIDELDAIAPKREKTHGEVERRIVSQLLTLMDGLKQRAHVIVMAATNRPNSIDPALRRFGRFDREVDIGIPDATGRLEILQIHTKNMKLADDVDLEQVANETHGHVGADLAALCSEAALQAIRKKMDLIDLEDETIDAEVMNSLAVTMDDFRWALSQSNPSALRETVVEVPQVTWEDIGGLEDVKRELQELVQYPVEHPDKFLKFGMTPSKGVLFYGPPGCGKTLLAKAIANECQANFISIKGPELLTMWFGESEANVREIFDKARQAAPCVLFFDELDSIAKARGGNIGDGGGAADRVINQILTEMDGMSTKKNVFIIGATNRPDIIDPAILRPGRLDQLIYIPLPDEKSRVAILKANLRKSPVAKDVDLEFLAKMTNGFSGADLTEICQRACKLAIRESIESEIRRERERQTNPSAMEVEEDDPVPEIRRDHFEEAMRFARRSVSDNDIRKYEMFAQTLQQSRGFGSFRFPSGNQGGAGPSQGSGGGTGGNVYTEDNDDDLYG

Among the data in PMC2920863 are binding values, retold here.

Results are given in words; binding and its absence hold for the method and conditions named. Binding seen in cells or lysates may run through a third protein.

As to “ATPase p97/Valosin-containing protein (VCP) (from UniProt Q3ZBT1 1-806)”, the binding result is “no binding”.
